Measured values as given in the supplement of paper PMC4604168 (melanoma cell lines).
The list shows a part of the results. Single values are uncertain, as repeats are few or missing.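 The apoptosis fraction was the count of cleaved-PARP antibody-stained nuclei relative to all DNA-stained nuclei, imaged in 1,536-well plates. Screening doses were set so most cells survived, and baseline and induced cleaved-PARP levels vary greatly across cell lines.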

Key:
Test in all cases: cleaved PARP positive nuclei fraction relative to DMSO control; melanoma cells; higher = more apoptosis
Conditions in all cases: library dose: low library concentration; 72 h
MZ2-MEL = system: MZ2-MEL
MeWo = system: MeWo
RPMI7951 = system: RPMI7951
RVH-421 = system: RVH-421
SkMel28 = system: SkMel28
SkMel2 = system: SkMel2
SkMel30 = system: SkMel30
SkMel5 = system: SkMel5
UACC257 = system: UACC257
UACC62 = system: UACC62

| Compound | cleaved PARP positive nuclei fraction (MZ2-MEL) [%] | cleaved PARP positive nuclei fraction (MeWo) [%] | cleaved PARP positive nuclei fraction (RPMI7951) [%] | cleaved PARP positive nuclei fraction (RVH-421) [%] | cleaved PARP positive nuclei fraction (SkMel28) [%] | cleaved PARP positive nuclei fraction (SkMel2) [%] | cleaved PARP positive nuclei fraction (SkMel30) [%] | cleaved PARP positive nuclei fraction (SkMel5) [%] | cleaved PARP positive nuclei fraction (UACC257) [%] | cleaved PARP positive nuclei fraction (UACC62) [%] |
| --- | --- | --- | --- | --- | --- | --- | --- | --- | --- | --- |
| Cn1sc(=O)n(Cc2ccccc2)c1=O + CCCCCCCCCCCC1=C(O)C(=O)C=C(O)C1=O [Embelin] (first compound 0.4 µM, partner dose 1.2 µM) | 91.4 | 70.3 | 78 | 126 | 213 | 90.5 | 77.3 | 147 | 143 | 202 |
| CCCCCCCCc1ccc(CCC(N)(CO)CO)cc1 [fingolimod] + OCCn1cc(-c2cnc3nnn(Cc4ccc5ncccc5c4)c3n2)cn1 [PF04217903] (first compound 2 µM, partner dose 1 µM) | 233 | 34.6 | 68.9 | 53.3 | 605 | 88.8 | 70.1 | 126 | 33.8 | 237 |
| C[C@]1(O)C[C@@H](c2nc(-c3ccc4ccc(-c5ccccc5)nc4c3)c3c(N)nccn32)C1 + CN(NC(=O)CC(=O)NN(C)C(=S)c1ccccc1)C(=S)c1ccccc1 [STA4783] (first compound 0.4 µM, partner dose 0.006 µM) | 133 | 154 | 132 | 61.4 | 333 | 139 | 68.1 | 691 | 241 | 282 |
| CN(c1ncccc1CNc1nc(Nc2ccc3c(c2)CC(=O)N3)ncc1C(F)(F)F)S(C)(=O)=O + O=S(=O)(c1ccccc1)N(CC(F)(F)F)c1ccc(C(O)(C(F)(F)F)C(F)(F)F)cc1 [T0901317] (first compound 0.08 µM, partner dose 1.4 µM) | 47.9 | 45.2 | 68 | 39.9 | 107 | 97.7 | 179 | 107 | 130 | 125 |
| NC1(c2ccc(-c3nc4ccn5c(=O)[nH]nc5c4cc3-c3ccccc3)cc2)CCC1 + O=C(Nc1ccccc1)c1cc([N+](=O)[O-])ccc1Cl [GW9662] (first compound 0.4 µM, partner dose 2 µM) | 154 | 87.9 | 80.3 | 234 | 35.9 | 124 | 70.2 | 91.6 | 19 | 1370 |
| C[C@]1(O)C[C@@H](c2nc(-c3ccc4ccc(-c5ccccc5)nc4c3)c3c(N)nccn32)C1 + CCCCCCCCCCCC1=C(O)C(=O)C=C(O)C1=O [Embelin] (first compound 0.4 µM, partner dose 1.2 µM) | 101 | 157 | 67.4 | 29.6 | 98.1 | 55.6 | 413 | 88.1 | 158 | 123 |
| Cn1sc(=O)n(Cc2ccccc2)c1=O + COc1cc(N2CCC(N3CCN(C)CC3)CC2)ccc1Nc1ncc(Cl)c(Nc2ccccc2S(=O)(=O)C(C)C)n1 [NVP-TAE684] (first compound 0.4 µM, partner dose 0.08 µM) | 134 | 42.4 | 151 | 91.4 | 321 | 79.1 | 81.7 | 80.7 | 85.1 | 119 |
| COc1ccc(C2=N[C@@H](c3ccc(Cl)cc3)[C@@H](c3ccc(Cl)cc3)N2C(=O)N2CCNC(=O)C2)c(OC(C)C)c1 [Nutlin-3] + Cc1cc([N+](=O)[O-])ccc1NS(=O)(=O)c1cc(Cl)ccc1Cl [FH535] (first compound 0.1 µM, partner dose 1 µM) | 142 | 117 | 86.7 | 165 | 75.9 | 55 | 87.1 | 79.2 | 99.9 | 99.3 |
| CN(c1ncccc1CNc1nc(Nc2ccc3c(c2)CC(=O)N3)ncc1C(F)(F)F)S(C)(=O)=O + CCN(CC)CCCCNc1ncc2cc(-c3cc(OC)cc(OC)c3)c(NC(=O)NC(C)(C)C)nc2n1 [PD173074] (first compound 0.08 µM, partner dose 0.1 µM) | 299 | 97.1 | 205 | 43.9 | 85.9 | 71.2 | 80.1 | 103 | 142 | 119 |
| NC(=O)c1ccc(N(C(N)=O)c2c(F)cccc2F)nc1-c1ccc(F)cc1F + O=c1cc(-c2cccc3c2Sc2ccccc2S3)oc(N2CCOCC2)c1 [KU55933] (first compound 0.4 µM, partner dose 1 µM) | 152 | 113 | 109 | 98.9 | 181 | 72.1 | 55.7 | 33.4 | 147 | 99.9 |
| COc1ccc(C2=N[C@@H](c3ccc(Cl)cc3)[C@@H](c3ccc(Cl)cc3)N2C(=O)N2CCNC(=O)C2)c(OC(C)C)c1 [Nutlin-3] + CC1(C)NC(=O)N(c2ccc([N+](=O)[O-])c(C(F)(F)F)c2)C1=O [nilutamide] (first compound 0.1 µM, partner dose 1 µM) | 138 | 204 | 45 | 118 | 58.2 | 87 | 53.1 | 214 | 257 | 141 |
| C[C@@H](N)c1ccc(C(=O)Nc2ccnc3[nH]ccc23)cc1 + O=C(O)c1ccc(-c2c[nH]c3ncc(-c4ccccc4)cc23)cc1C1CCCC1 [GSK650394] (first compound 0.4 µM, partner dose 0.16 µM) | 163 | 142 | 220 | 44 | 66.1 | 135 | 61.6 | 41 | 80 | 92 |
| CN(c1ncccc1CNc1nc(Nc2ccc3c(c2)CC(=O)N3)ncc1C(F)(F)F)S(C)(=O)=O + COc1cc(N2CCC(N3CCN(C)CC3)CC2)ccc1Nc1ncc(Cl)c(Nc2ccccc2S(=O)(=O)C(C)C)n1 [NVP-TAE684] (first compound 0.08 µM, partner dose 0.08 µM) | 230 | 225 | 44.9 | 262 | 352 | 105 | 37.5 | 180 | 285 | 109 |
| Cn1cnc2c(F)c(Nc3ccc(Br)cc3Cl)c(C(=O)NOCCO)cc21 [selumetinib] + CC(C)(C)c1cnc(CSc2cnc(NC(=O)C3CCNCC3)s2)o1 [SNS-032] (first compound 0.015 µM, partner dose 0.01 µM) | 332 | 58.1 | 143 | 99.1 | 60.1 | 95.7 | 75.2 | 216 | 190 | 147 |
| C[C@]1(O)C[C@@H](c2nc(-c3ccc4ccc(-c5ccccc5)nc4c3)c3c(N)nccn32)C1 + Cc1cc(N2CCOCC2)cc2[nH]c(-c3c(NC[C@@H](O)c4cccc(Cl)c4)cc[nH]c3=O)nc12 [BMS536924] (first compound 0.4 µM, partner dose 0.2 µM) | 117 | 23.5 | 129 | 84.1 | 285 | 146 | 64.7 | 67.1 | 109 | 112 |
| NC(=O)c1ccc(N(C(N)=O)c2c(F)cccc2F)nc1-c1ccc(F)cc1F + Cn1cncc1[C@@](N)(c1ccc(Cl)cc1)c1ccc2c(c1)c(-c1cccc(Cl)c1)cc(=O)n2C [tipifarnib] (first compound 0.4 µM, partner dose 0.01 µM) | 95.5 | 86.8 | 160 | 73 | 189 | 75.7 | 241 | 63.5 | 166 | 61.6 |
| C[C@@H](N)c1ccc(C(=O)Nc2ccnc3[nH]ccc23)cc1 + c1cc(-c2cnn3cc(-c4ccc(OCCN5CCCCC5)cc4)cnc23)ccn1 [Dorsomorphin] (first compound 0.4 µM, partner dose 0.4 µM) | 160 | 124 | 210 | 496 | 173 | 57.6 | 108 | 52 | 116 | 223 |
| COc1ccc(C2=N[C@@H](c3ccc(Cl)cc3)[C@@H](c3ccc(Cl)cc3)N2C(=O)N2CCNC(=O)C2)c(OC(C)C)c1 [Nutlin-3] + O=C(O)c1ccc2c(c1)nc(Nc1cccc(Cl)c1)c1ccncc12 [CX4945] (first compound 0.1 µM, partner dose 0.4 µM) | 95.5 | 120 | 158 | 129 | 61.4 | 126 | 99.6 | 42.3 | 42.3 | 90.7 |
| Cn1sc(=O)n(Cc2ccccc2)c1=O + COc1ccc(COc2ccc(Cc3cnc(N)nc3N)cc2OC)cc1 [GW2580] (first compound 0.4 µM, partner dose 1 µM) | 67.9 | 130 | 38 | 57.9 | 172 | 64.4 | 37.1 | 81.4 | 89.4 | 99.6 |
| NC1(c2ccc(-c3nc4ccn5c(=O)[nH]nc5c4cc3-c3ccccc3)cc2)CCC1 + O=C(CCCCCCC(=O)Nc1ccccc1)NO [vorinostat] (first compound 0.4 µM, partner dose 0.08 µM) | 121 | 212 | 120 | 83.2 | 130 | 69.4 | 45.2 | 78.3 | 154 | 42.9 |
| COc1ccc(C2=N[C@@H](c3ccc(Cl)cc3)[C@@H](c3ccc(Cl)cc3)N2C(=O)N2CCNC(=O)C2)c(OC(C)C)c1 [Nutlin-3] + O=C(CCCCCCC(=O)Nc1ccccc1)NO [vorinostat] (first compound 0.1 µM, partner dose 0.08 µM) | 161 | 218 | 47.4 | 97.6 | 120 | 85.4 | 61.2 | 33.6 | 44.6 | 76.9 |
| CC1(C)CCC(c2ccc(Cl)cc2)=C(CN2CCN(c3ccc(C(=O)NS(=O)(=O)c4ccc(N[C@H](CCN5CCOCC5)CSc5ccccc5)c(S(=O)(=O)C(F)(F)F)c4)cc3)CC2)C1 + O=C(Nc1ccccc1)c1cc([N+](=O)[O-])ccc1Cl [GW9662] (first compound 0.4 µM, partner dose 2 µM) | 253 | 644 | 339 | 163 | 80.8 | 103 | 48.2 | 114 | 55.5 | 193 |

A different layout for part of the listing above.
Compound	cleaved PARP positive nuclei fraction (MZ2-MEL) [%]	cleaved PARP positive nuclei fraction (MeWo) [%]	cleaved PARP positive nuclei fraction (RPMI7951) [%]	cleaved PARP positive nuclei fraction (RVH-421) [%]	cleaved PARP positive nuclei fraction (SkMel28) [%]	cleaved PARP positive nuclei fraction (SkMel2) [%]	cleaved PARP positive nuclei fraction (SkMel30) [%]	cleaved PARP positive nuclei fraction (SkMel5) [%]	cleaved PARP positive nuclei fraction (UACC257) [%]	cleaved PARP positive nuclei fraction (UACC62) [%]
C[C@]1(O)C[C@@H](c2nc(-c3ccc4ccc(-c5ccccc5)nc4c3)c3c(N)nccn32)C1 + CN(NC(=O)CC(=O)NN(C)C(=S)c1ccccc1)C(=S)c1ccccc1 [STA4783] (first compound 0.4 µM, partner dose 0.006 µM)	133	154	132	61.4	333	139	68.1	691	241	282
CN(c1ncccc1CNc1nc(Nc2ccc3c(c2)CC(=O)N3)ncc1C(F)(F)F)S(C)(=O)=O + O=S(=O)(c1ccccc1)N(CC(F)(F)F)c1ccc(C(O)(C(F)(F)F)C(F)(F)F)cc1 [T0901317] (first compound 0.08 µM, partner dose 1.4 µM)	47.9	45.2	68	39.9	107	97.7	179	107	130	125
